These are yes or no findings as the source states them, for the method shown. In cells and extracts the contact can be indirect. Here binding means that the protein was enriched with, or labelled near, the bait; the list need not be complete.
B1: FAM115C (protein, UniProt A6NFQ2 1-919)
chain: MATIAAAAFEALMDGVTCWDVPRGPIPSELLLIGEAAFPVMVNDKGQVLIAASSYGRGRLVVVSHEGYLSHTGLAPFLLNAVSWLCPCPGAPVGVHPSLAPLVNILQDAGLEAQVKPEPGEPLGVYCINAYNDTLTATLIQFVKHGGGLLIGGQAWYWASQHGPDKVLSRFPGNKVTSVAGVYFTDTYGDRDRFKVSKKVPKIPLHVRYGEDVRQDQQQLLEGISELDIRTGGVPSQLLVHGALAFPLGLDASLNCFLAAAHYGRGRVVLAAHECLLCAPKMGPFLLNAVRWLARGQTGKVGVNTNLKDLCPLLSEHGLQCSLEPHLNSDLCVYCCKAYSDKEAKQLQEFVAEGGGLLIGGQAWWWASQNPGHCPLAGFPGNIILNCFGLSILPQTLKAGCFPVPTPEMRSYHFRKALSQFQAILNHENGNLEKSCLAKLRVDGAAFLQIPAEGVPAYISLHRLLRKMLRGSGLPAVSRENPVASDSYEAAVLSLATGLAHSGTDCSQLAQGLGTWTCSSSLYPSKHPITVEINGINPGNNDCWVSTGLYLLEGQNAEVSLSEAAASAGLRVQIGCHTDDLTKARKLSRAPVVTHQCWMDRTERSVSCLWGGLLYVIVPKGSQLGPVPVTIRGAVPAPYYKLGKTSLEEWKRQMQENLAPWGELATDNIILTVPTTNLQALKDPEPVLRLWDEMMQAVARLAAEPFPFRRPERIVADVQISAGWMHSGYPIMCHLESVKEIINEMDMRSRGVWGPIHELGHNQQRHGWEFPPHTTEATCNLWSVYVHETVLGIPRAQAHEALSPPERERRIKAHLGKGAPLCDWNVWTALETYLQLQEAFGWEPFTQLFAEYQTLSHLPKDNTGRMNLWVKKFSEKVKKNLVPFFEAWGWPIQKEVADSLASLPEWQENPMQVYLRARK
B2: BET1 homolog (protein, UniProt O15155 1-118)
chain: MRRAGLGEGVPPGNYGNYGYANSGYSACEEENERLTESLRSKVTAIKSLSIEIGHEVKTQNKLLAEMDSQFDSTTGFLGKTMGKLKILSRGSQTKLLCYMMLFSLFVFFIIYWIIKLR
B3: MAP7 domain-containing protein 3 (protein, UniProt Q8IWC1 1-876)
chain: MMADGAAAGAGGSPSLRELRARMVAAANEIAKERRKQDVVNRVATHSSNIRSTFKPVIDGSMLKNDIKQRLARERREEKRRQQDANKETQLLEKERKTKLQYEKQMEERQRKLKERKEKEEQRRIAAEEKRHQKDEAQKEKFTAILYRTLERRRLADDYQQKRWSWGGSAMANSESKTANKRSASTEKLEQGTSALIRQMPLSSAGLQNSVAKRKTDKERSSSLNRRDSNLHSSTDKEQAERKPRVTGVTNYVMQYVTVPLRKCTSDELRAVMFPMSTMKIPPQTKVEESPLEKVETPPKASVDAPPQVNVEVFCNTSMEASPKAGVGMAPEVSTDSFPVVSVDVSPVVSTYDSEMSMDASPELSIEALPKVDLETVPKVSIVASPEASLEAPPEVSLEALPEVSVEAAPEGSLEAPPKGSAEVAPKESVKGSPKESMEASPEAMVKASPKTSLEASMEASPKAKARDAPKKSEMDKQALIPIAKKRLSSYTECYKWSSSPENACGLPSPISTNRQIQKNCPPSPLPLISKQSPQTSFPYKIMPIQHTLSVQSASSTVKKKKETVSKTTNRCEALSQRHMIYEESGNKSTAGIMNAEAATKILTELRRLAREQREKEEEERQREEMQQRVIKKSKDMAKEAVGGQAEDHLKLKDGQQQNETKKKKGWLDQEDQEAPLQKGDAKIKAQEEADKRKKEHERIMLQNLQERLERKKRIEEIMKRTRKTDVNASKVTETSSHDIYEEAEADNEESDKDSLNEMFPSAILNGTGSPTKFKMPFNNAKKMTHKLVFLEDGTSQVRKEPKTYFNGDLKNFRQKSMKDTSIQEVVSRPSSKRMTSHTTKTRKADETNTTSRSSAQTKSEGFHDILPKSSDTFRQ
B4: FAM65C (protein, UniProt Q96MK2 1-946)
chain: MSVRLRFLSPGDTGAVGVVGRSASFAGFSSAQSRRIAKSINRNSVRSRMPAKSSKMYGTLRKGSVCADPKPQQVKKIFEALKRGLKEYLCVQQAELDHLSGRHKDTRRNSRLAFYYDLDKQTRCVERHIRKMEFHISKVDELYEDYCIQCRLRDGASSMQRAFARCPPSRAARESLQELGRSLHECAEDMWLIEGALEVHLGEFHIRMKGLVGYARLCPGDHYEVLMRLGRQRWKLKGRIESDDSQTWDEEEKAFIPTLHENLDIKVTELRGLGSLAVGAVTCDIADFFTTRPQVIVVDITELGTIKLQLEVQWNPFDTESFLVSPSPTGKFSMGSRKGSLYNWTPPSTPSFRERYYLSVLQQPTQQALLLGGPRATSILSYLSDSDLRGPSLRSQSQELPEMDSFSSEDPRDTETSTSASTSDVGFLPLTFGPHASIEEEAREDPLPPGLLPEMAHLSGGPFAEQPGWRNLGGESPSLPQGSLFHSGTASSSQNGHEEGATGDREDGPGVALEGPLQEVLELLRPTDSTQPQLRELEYQVLGFRDRLKPCRARQEHTSAESLMECILESFAFLNADFALDELSLFGGSQGLRKDRPLPPPSSLKASSRELTAGAPELDVLLMVHLQVCKALLQKLASPNLSRLVQECLLEEVAQQKHVLETLSVLDFEKVGKATSIEEIIPQASRTKGCLKLWRGCTGPGRVLSCPATTLLNQLKKTFQHRVRGKYPGQLEIACRRLLEQVVSCGGLLPGAGLPEEQIITWFQFHSYLQRQSVSDLEKHFTQLTKEVTLIEELHCAGQAKVVRKLQGKRLGQLQPLPQTLRAWALLQLDGTPRVCRAASARLAGAVRNRSFREKALLFYTNALAENDARLQQAACLALKHLKGIESIDQTASLCQSDLEAVRAAARETTLSFGEKGRLAFEKMDKLCSEQREVFCQEADVEITIF
B5: BAI1-associated protein3 (BAP3) (protein, UniProt O94812 1-1187)
chain: MRPRGAAFAAGPPGDLHLGTAIGFAGAIWRSRSPAMSTLLDIKSSVLRQVQVCPSFRRRTEQDPGSASADPQEPATGAWKPGDGVEFFAHMRLMLKKGEGRQGLPCLEVPLRSGSPAPPEPVDPSLGLRALAPEEVEMLYEEALYTVLYRAGTMGPDQVDDEEALLSYLQQVFGTSLEEHTEAIERVRKAKAPTYALKVSVMRAKNLLAKDPNGFSDPYCMLGILPASDATREPRAQKEQRFGFRKGSKRGGPLPAKCIQVTEVKSSTLNPVWKEHFLFEIEDVSTDQLHLDIWDHDDDVSLVEACRKLNEVIGLKGMGRYFKQIVKSARANGTAGPTEDHTDDFLGCLNIPVREVPVAGVDRWFKLEPRSSASRVQGHCHLVLKLITTQRDTAMSQRGRSGFLSHLLLLSHLLRLEHSAEEPNSSSWRGELSTPAATILCLHGAQSNLSPLQLAVLHWQVSSRHHQTCTLDYSYLLGLLEDMQAHWEEAPSLPQEQEESLADSLSAFSEFGLQLLRQLRDYFPATNSTAVHRLELLLKCLGKLQLFQPSFEICPFESELNMDIAAALKRGNREWYDRILNDKSPREQPGPQRLPGLVVLADAVYDDLQFCYSVYASLFHSILNVDVFTLTFRQLERLVAEEAWVLTEELSPKMTLEVASGLFELYLTLADLQRFWDSIPGRDSRSLALAGIHAPFLPAVKLWFQVLRDQAKWRLQGAVDMDTLEPVDASSRHSSSAATAGLCLSHIQELWVRLAWPDPAQAQGLGTQLGQDVCEATLFYTELLRKKVDTQPGAAGEAVSEALCVVLNNVELVRKAAGQALKGLAWPEGATGPEGVLPRPLLSCTQALDDDLQREAHTVTAHLTSKMVGDIRKYVQHISLSPDSIQNDEAVAPLMKYLDEKLALLNASLVKGNLSRVLEALWELLLQAILQALGANRDVSADFYSRFHFTLEALVSFFHAEGQGLPLESLRDGSYKRLKEELRLHKCSTRECIEQFYLDKLKQRTLEQNRFGRLSVRCHYEAAEQRLAVEVLHAADLLPLDANGLSDPFVIVELGPPHLFPLVRSQRTQVKTRTLHPVYDELFYFSVPAEACRRRAACVLFTVMDHDWLSTNDFAGEAALGLGGVTGVARPQVGGGARAGQPVTLHLCRPRAQVRSALRRLEGRTSKEAQEFVKKLKELEKCMEADP
B6: Latrophilin-1 (protein, UniProt O94910 25-1474)
chain: LSRAGLPFGLMRRELACEGYPIELRCPGSDVIMVENANYGRTDDKICDADPFQMENVQCYLPDAFKIMSQRCNNRTQCVVVAGSDAFPDPCPGTYKYLEVQYDCVPYKVEQKVFVCPGTLQKVLEPTSTHESEHQSGAWCKDPLQAGDRIYVMPWIPYRTDTLTEYASWEDYVAARHTTTYRLPNRVDGTGFVVYDGAVFYNKERTRNIVKYDLRTRIKSGETVINTANYHDTSPYRWGGKTDIDLAVDENGLWVIYATEGNNGRLVVSQLNPYTLRFEGTWETGYDKRSASNAFMVCGVLYVLRSVYVDDDSEAAGNRVDYAFNTNANREEPVSLTFPNPYQFISSVDYNPRDNQLYVWNNYFVVRYSLEFGPPDPSAGPATSPPLSTTTTARPTPLTSTASPAATTPLRRAPLTTHPVGAINQLGPDLPPATAPVPSTRRPPAPNLHVSPELFCEPREVRRVQWPATQQGMLVERPCPKGTRGIASFQCLPALGLWNPRGPDLSNCTSPWVNQVAQKIKSGENAANIASELARHTRGSIYAGDVSSSVKLMEQLLDILDAQLQALRPIERESAGKNYNKMHKRERTCKDYIKAVVETVDNLLRPEALESWKDMNATEQVHTATMLLDVLEEGAFLLADNVREPARFLAAKENVVLEVTVLNTEGQVQELVFPQEEYPRKNSIQLSAKTIKQNSRNGVVKVVFILYNNLGLFLSTENATVKLAGEAGPGGPGGASLVVNSQVIAASINKESSRVFLMDPVIFTVAHLEDKNHFNANCSFWNYSERSMLGYWSTQGCRLVESNKTHTTCACSHLTNFAVLMAHREIYQGRINELLLSVITWVGIVISLVCLAICISTFCFLRGLQTDRNTIHKNLCINLFLAELLFLVGIDKTQYEIACPIFAGLLHYFFLAAFSWLCLEGVHLYLLLVEVFESEYSRTKYYYLGGYCFPALVVGIAAAIDYRSYGTEKACWLRVDNYFIWSFIGPVSFVIVVNLVFLMVTLHKMIRSSSVLKPDSSRLDNIKSWALGAIALLFLLGLTWAFGLLFINKESVVMAYLFTTFNAFQGVFIFVFHCALQKKVHKEYSKCLRHSYCCIRSPPGGTHGSLKTSAMRSNTRYYTGTQSRIRRMWNDTVRKQTESSFMAGDINSTPTLNRGTMGNHLLTNPVLQPRGGTSPYNTLIAESVGFNPSSPPVFNSPGSYREPKHPLGGREACGMDTLPLNGNFNNSYSLRSGDFPPGDGGPEPPRGRNLADAAAFEKMIISELVHNNLRGSSSAAKGPPPPEPPVPPVPGGGGEEEAGGPGGADRAEIELLYKALEEPLLLPRAQSVLYQSDLDESESCTAEDGATSRPLSSPPGRDSLYASGANLRDSPSYPDSSPEGPSEALPPPPPAPPGPPEIYYTSRPPALVARNPLQGYYQVRRPSHEGYLAAPGLEGPGPDGDGQMQLVTSL

Sequences of proteins named here, by UniProt entry; tags and fusion partners are left off.
UniProt P84095: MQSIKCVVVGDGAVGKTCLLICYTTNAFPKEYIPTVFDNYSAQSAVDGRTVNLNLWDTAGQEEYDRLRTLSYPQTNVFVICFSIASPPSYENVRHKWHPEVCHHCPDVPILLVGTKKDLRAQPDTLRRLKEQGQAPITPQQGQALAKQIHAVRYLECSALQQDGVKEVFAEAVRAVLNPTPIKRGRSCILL
UniProt Q96BY6: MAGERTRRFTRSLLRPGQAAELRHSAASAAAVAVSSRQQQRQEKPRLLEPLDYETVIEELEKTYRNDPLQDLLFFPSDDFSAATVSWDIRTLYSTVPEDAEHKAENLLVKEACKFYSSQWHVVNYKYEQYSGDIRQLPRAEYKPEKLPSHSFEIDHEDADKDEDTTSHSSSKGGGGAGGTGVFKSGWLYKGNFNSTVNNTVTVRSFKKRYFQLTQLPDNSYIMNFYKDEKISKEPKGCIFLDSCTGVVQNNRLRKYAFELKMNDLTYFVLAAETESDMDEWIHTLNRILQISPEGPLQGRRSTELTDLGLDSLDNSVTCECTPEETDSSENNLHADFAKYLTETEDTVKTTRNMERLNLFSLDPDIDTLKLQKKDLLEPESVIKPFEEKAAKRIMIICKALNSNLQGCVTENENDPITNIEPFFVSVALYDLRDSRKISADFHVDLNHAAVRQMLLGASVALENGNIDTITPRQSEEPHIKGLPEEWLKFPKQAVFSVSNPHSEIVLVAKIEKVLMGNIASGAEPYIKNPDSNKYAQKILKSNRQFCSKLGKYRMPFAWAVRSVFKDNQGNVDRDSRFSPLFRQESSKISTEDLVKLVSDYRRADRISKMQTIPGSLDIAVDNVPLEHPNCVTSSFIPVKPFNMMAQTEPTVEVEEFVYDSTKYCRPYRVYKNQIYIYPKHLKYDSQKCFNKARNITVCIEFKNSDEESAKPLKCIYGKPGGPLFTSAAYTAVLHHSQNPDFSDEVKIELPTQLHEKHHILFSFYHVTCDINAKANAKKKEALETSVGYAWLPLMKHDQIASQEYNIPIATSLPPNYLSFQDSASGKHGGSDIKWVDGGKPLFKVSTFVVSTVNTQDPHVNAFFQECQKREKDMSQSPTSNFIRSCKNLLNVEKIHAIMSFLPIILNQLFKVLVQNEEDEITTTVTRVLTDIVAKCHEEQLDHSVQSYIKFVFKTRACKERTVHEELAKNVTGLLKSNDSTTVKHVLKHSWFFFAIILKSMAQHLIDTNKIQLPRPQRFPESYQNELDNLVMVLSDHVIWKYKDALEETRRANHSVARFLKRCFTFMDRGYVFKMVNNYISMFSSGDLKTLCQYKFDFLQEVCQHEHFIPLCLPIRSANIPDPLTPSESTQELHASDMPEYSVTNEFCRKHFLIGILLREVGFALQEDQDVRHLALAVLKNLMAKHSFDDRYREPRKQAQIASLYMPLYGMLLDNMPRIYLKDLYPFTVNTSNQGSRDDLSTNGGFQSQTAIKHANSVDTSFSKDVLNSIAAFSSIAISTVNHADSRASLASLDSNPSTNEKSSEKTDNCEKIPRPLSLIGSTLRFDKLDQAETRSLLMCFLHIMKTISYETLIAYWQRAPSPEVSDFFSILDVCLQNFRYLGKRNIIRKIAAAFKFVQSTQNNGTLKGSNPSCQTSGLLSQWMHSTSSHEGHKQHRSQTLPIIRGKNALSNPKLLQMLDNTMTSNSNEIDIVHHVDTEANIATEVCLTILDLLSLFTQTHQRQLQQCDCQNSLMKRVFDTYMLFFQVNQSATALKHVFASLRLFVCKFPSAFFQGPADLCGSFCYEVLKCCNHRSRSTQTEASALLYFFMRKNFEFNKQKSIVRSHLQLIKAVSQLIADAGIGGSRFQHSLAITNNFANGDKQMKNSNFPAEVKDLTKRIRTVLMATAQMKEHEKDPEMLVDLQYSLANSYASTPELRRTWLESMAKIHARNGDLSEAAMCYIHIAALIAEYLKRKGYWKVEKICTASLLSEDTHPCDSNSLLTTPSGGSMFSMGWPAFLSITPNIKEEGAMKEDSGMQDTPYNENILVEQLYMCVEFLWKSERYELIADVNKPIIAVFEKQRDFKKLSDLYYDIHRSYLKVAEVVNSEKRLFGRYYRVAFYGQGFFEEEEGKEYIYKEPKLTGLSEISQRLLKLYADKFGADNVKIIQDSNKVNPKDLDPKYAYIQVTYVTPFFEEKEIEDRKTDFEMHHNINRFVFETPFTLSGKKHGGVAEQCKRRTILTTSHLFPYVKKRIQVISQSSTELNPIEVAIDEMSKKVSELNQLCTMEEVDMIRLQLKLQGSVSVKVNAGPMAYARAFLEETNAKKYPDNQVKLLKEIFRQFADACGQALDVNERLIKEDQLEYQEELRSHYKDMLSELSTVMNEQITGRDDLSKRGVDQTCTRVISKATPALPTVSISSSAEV
UniProt P63027: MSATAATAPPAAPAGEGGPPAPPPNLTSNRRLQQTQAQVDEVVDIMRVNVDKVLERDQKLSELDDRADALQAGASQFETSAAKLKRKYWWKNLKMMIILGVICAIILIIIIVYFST
UniProt Q86TV6: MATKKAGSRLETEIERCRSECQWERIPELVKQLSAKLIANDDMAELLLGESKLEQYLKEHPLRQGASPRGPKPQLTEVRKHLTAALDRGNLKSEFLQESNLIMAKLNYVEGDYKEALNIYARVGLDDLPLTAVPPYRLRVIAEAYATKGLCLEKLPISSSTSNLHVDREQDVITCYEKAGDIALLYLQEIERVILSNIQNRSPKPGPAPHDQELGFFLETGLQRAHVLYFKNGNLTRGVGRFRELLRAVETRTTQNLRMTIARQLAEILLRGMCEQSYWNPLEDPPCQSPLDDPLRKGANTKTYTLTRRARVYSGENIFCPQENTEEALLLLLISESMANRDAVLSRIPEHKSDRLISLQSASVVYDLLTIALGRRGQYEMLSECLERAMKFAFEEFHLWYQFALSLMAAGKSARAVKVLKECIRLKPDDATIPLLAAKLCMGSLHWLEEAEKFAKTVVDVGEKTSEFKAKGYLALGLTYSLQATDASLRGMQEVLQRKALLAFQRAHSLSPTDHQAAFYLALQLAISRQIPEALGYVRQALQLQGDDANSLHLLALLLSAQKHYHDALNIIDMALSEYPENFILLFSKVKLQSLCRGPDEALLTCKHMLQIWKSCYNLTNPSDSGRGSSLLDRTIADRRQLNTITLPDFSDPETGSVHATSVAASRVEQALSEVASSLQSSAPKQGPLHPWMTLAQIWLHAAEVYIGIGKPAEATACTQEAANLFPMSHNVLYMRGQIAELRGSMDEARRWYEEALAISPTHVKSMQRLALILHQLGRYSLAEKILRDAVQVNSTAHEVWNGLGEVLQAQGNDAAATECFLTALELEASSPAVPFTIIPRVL
UniProt Q92845: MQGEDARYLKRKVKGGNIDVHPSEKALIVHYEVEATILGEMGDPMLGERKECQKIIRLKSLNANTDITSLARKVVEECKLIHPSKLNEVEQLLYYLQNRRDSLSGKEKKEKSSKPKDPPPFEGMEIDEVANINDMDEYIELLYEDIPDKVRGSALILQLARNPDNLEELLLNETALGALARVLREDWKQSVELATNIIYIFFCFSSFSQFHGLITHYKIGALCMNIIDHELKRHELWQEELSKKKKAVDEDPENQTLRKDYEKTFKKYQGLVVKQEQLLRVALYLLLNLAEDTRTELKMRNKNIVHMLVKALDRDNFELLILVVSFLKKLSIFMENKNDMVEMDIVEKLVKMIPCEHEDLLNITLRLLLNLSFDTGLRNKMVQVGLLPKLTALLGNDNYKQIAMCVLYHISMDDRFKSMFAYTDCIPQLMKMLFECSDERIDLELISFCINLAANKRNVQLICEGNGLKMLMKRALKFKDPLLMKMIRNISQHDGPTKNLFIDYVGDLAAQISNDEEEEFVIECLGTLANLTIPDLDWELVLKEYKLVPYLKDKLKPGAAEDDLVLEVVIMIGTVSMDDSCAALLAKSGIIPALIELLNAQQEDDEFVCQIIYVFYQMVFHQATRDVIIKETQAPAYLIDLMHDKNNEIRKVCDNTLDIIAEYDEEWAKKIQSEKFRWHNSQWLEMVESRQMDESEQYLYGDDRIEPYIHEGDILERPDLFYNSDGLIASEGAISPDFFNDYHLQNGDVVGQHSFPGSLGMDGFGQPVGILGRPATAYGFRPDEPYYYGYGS
UniProt Q15058: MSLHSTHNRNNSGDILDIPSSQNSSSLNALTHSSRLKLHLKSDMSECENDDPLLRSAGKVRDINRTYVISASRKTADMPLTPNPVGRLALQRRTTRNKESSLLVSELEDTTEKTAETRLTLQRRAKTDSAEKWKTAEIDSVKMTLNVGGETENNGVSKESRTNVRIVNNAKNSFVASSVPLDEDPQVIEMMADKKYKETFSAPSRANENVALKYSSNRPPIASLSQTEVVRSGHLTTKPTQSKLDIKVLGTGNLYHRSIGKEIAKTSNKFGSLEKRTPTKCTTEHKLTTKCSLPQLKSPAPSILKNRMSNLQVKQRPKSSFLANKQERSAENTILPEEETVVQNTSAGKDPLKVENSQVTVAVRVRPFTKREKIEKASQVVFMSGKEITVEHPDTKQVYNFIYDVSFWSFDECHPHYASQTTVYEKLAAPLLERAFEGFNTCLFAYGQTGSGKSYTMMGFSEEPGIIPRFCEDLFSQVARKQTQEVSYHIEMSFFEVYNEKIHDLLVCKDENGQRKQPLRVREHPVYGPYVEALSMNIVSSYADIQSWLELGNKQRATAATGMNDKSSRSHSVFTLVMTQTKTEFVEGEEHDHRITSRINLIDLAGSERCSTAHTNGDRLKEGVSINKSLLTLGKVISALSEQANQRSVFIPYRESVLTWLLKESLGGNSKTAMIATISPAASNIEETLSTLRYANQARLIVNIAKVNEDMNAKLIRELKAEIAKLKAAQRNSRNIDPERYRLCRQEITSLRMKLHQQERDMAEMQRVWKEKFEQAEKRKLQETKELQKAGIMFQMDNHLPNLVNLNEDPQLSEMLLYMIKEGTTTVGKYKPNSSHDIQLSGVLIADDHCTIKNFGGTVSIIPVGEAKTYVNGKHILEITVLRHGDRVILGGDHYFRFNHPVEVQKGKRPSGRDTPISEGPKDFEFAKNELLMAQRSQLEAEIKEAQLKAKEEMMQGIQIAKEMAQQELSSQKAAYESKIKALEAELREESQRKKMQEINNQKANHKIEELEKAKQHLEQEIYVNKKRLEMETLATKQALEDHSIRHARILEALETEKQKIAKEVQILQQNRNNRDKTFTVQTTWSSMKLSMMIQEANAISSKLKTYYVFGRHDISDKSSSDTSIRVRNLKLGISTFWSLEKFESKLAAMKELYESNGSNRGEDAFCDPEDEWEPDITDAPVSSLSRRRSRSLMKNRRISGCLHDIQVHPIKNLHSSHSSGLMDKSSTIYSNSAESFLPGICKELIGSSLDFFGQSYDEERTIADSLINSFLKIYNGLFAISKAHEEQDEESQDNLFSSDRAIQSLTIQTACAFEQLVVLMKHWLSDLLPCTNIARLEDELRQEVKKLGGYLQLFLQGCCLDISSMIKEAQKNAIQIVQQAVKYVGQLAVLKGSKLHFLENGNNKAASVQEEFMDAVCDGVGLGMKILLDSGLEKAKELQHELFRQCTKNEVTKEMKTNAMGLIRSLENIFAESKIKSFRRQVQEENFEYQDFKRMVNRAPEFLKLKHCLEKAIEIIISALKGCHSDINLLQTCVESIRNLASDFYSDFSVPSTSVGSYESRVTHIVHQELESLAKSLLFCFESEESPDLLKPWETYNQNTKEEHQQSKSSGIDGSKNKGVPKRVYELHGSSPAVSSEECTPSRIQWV
UniProt P48059: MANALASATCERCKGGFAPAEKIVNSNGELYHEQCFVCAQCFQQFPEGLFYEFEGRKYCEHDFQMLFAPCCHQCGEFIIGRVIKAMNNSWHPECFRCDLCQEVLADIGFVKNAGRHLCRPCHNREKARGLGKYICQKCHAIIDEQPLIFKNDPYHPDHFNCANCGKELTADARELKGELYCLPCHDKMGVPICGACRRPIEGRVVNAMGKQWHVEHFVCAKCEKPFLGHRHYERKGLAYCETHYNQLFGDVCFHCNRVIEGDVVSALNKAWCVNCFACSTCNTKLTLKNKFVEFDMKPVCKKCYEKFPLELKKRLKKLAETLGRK

Target: GST-RhoG fusion protein (UniProt P84095)
Assay: affinity purification with mass spectrometry; GTPγS-loaded (100 uM) GST-RhoG-Sepharose beads rotated with washed human platelet lysates (500 ul, 5 x 10^8/ml) for 1 h at 4 °C; bound proteins eluted in Laemmli buffer, SDS-PAGE, in-gel tryptic digestion, LTQ Orbitrap Velos; three donors; only the target purified

binding, binds:
DOCK10 (from UniProt Q96BY6 1-2186)
Vesicle-associated membrane protein 2 (from UniProt P63027 1-116)
DOCK1 (DOCK180) (from UniProt Q14185 1-1865)
TTC7B protein (from UniProt Q86TV6 1-843)
Kinesin-associated protein 3 (from UniProt Q92845 1-792)
KIF14 (from UniProt Q15058 1-1648)
LIMS1 (from UniProt P48059 1-325)
B1
B2
B3
B4
B5
B6

Source: paper PMC3837162
